PubChem BioAssay AID1224830 | NIAID | 2016
Assay: 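Regulators of TLR4 signalling towards TNF-alpha in macrophage-like cells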 (primary screen). Cell system: human THP-1 monocytic leukaemia cells, TNF dual-luciferase reporter clone, PMA-differentiated to macrophage-like cells. Reagents: siRNA pool against human genes, 50 nM. Duration: LPS for 4 h, given about 3 days after siRNA transfection. Conditions: bacterial LPS (TLR4 ligand), 10 ng/ml. Detection: 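Ratio of firefly to renilla light, scaled to the plate median and expressed as a robust z-score per replicate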. Reading the numbers: TNF reporter robust z-score: higher = stronger TNF reporter response to LPS. Call rule: 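Each well counts as active if its z-score is over 2.8 or under -1.5; controls are left without a call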.
The whole screen tested about 18,000 reagents; this is a part drawn at random. About 2,900 of them (16%) count as active. 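Calls are made per well; low scores hint the gene aids the LPS response, high scores that it dampens it.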 Unmarked entries are inactive. Repeated entries: four replicate wells of each siRNA pool. No sequences are given here.

What did the screen give for MLKL (mixed lineage kinase domain like pseudokinase)?
TNF reporter robust z-score: 2.96 (active)

What is on record for MLKL (mixed lineage kinase domain like pseudokinase)?
TNF reporter robust z-score: 0.65

What did the screen give for MLKL (mixed lineage kinase domain like pseudokinase)?
TNF reporter robust z-score: 0.56

With MLKL (mixed lineage kinase domain like pseudokinase), what was measured?
TNF reporter robust z-score: -0.23

What is on record for RAB40C (RAB40C, member RAS oncogene family)?
TNF reporter robust z-score: 0.18

For RAB40C (RAB40C, member RAS oncogene family), how do the results read?
TNF reporter robust z-score: -0.26

For RAB40C (RAB40C, member RAS oncogene family), how do the results read?
TNF reporter robust z-score: 0.03

What did the screen give for RAB40C (RAB40C, member RAS oncogene family)?
TNF reporter robust z-score: -0.53

What did the screen give for OTUD3 (OTU deubiquitinase 3)?
TNF reporter robust z-score: 1.41

For OTUD3 (OTU deubiquitinase 3), what was measured?
TNF reporter robust z-score: 1.82

What is on record for OTUD3 (OTU deubiquitinase 3)?
TNF reporter robust z-score: 0.96

Which result is listed for OTUD3 (OTU deubiquitinase 3)?
TNF reporter robust z-score: 2.5

For ZNF311 (zinc finger protein 311), what was measured?
TNF reporter robust z-score: 0.24

What is on record for ZNF311 (zinc finger protein 311)?
TNF reporter robust z-score: 0.3

What did the screen give for ZNF311 (zinc finger protein 311)?
TNF reporter robust z-score: 0.38

For ZNF311 (zinc finger protein 311), how do the results read?
TNF reporter robust z-score: 0.5

Additional reagents follow.
What did the screen give for BDH2 (3-hydroxybutyrate dehydrogenase 2)?
TNF reporter robust z-score: 1.91

For BDH2 (3-hydroxybutyrate dehydrogenase 2), what was measured?
TNF reporter robust z-score: 3.29 (active)

For BDH2 (3-hydroxybutyrate dehydrogenase 2), how do the results read?
TNF reporter robust z-score: 2.12

With BDH2 (3-hydroxybutyrate dehydrogenase 2), what does the deposit list?
TNF reporter robust z-score: 2.84 (active)

What did the screen give for PRDM4 (PR/SET domain 4)?
TNF reporter robust z-score: 0.49

How did the screen score PRDM4 (PR/SET domain 4)?
TNF reporter robust z-score: 1.39

With PRDM4 (PR/SET domain 4), what was measured?
TNF reporter robust z-score: 0.13

What did the screen give for PRDM4 (PR/SET domain 4)?
TNF reporter robust z-score: 0.8

For MORN4 (MORN repeat containing 4), what was measured?
TNF reporter robust z-score: 1.48

With MORN4 (MORN repeat containing 4), what does the deposit list?
TNF reporter robust z-score: 0.77

How did the screen score MORN4 (MORN repeat containing 4)?
TNF reporter robust z-score: 1.02

For MORN4 (MORN repeat containing 4), what was measured?
TNF reporter robust z-score: -0.01

What did the screen give for NLRP10 (NLR family pyrin domain containing 10)?
TNF reporter robust z-score: 0.6

How did the screen score NLRP10 (NLR family pyrin domain containing 10)?
TNF reporter robust z-score: 1.04

How did the screen score NLRP10 (NLR family pyrin domain containing 10)?
TNF reporter robust z-score: 0.19

Which result is listed for NLRP10 (NLR family pyrin domain containing 10)?
TNF reporter robust z-score: 0.87
